Experimental data from US20210380707A1.
Results are given in words; binding and its absence hold for the method and conditions named. Some entries that bind do so weakly or less than the wild type.

By UniProt entry, the sequences of proteins in these tests, tags left out. Where a name states a change or a piece, a line headed by the entry shows the natural chain unless it says otherwise.
UniProt P32970: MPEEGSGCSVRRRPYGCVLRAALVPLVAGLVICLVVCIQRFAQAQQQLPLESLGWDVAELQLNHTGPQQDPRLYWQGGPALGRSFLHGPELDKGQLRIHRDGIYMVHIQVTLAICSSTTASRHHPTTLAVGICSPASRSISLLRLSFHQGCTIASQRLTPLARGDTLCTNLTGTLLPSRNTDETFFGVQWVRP

Key:
human CD70 (human) [1] = target: human CD70 (human) (UniProt P32970); test: IHC Leica BOND, ER2, FFPE Nomo-1 cells, 8 µg/mL
human CD70 (human) [2] = target: human CD70 (human) (UniProt P32970); test: IHC Leica BOND, ER1, FFPE Nomo-1 cells, 4 µg/mL
human CD70 (human) [3] = target: human CD70 (human) (UniProt P32970); test: manual IHC, FFPE HH cells (CD70 positive), 10 µg/mL
human CD70 (human) [4] = target: human CD70 (human) (UniProt P32970); test: IHC Leica BOND, ER2, FFPE ACHN cells, 4 µg/mL
human CD70 (human) [5] = target: human CD70 (human) (UniProt P32970); test: manual IHC, FFPE MM.1S cells (CD70 positive), 10 µg/mL
human CD70 (human) [6] = target: human CD70 (human) (UniProt P32970); test: IHC Leica BOND, ER2, FFPE Nomo-1 cells, 4 µg/mL
human CD70 (human) [7] = target: human CD70 (human) (UniProt P32970); test: IHC Leica BOND, ER1, FFPE ACHN cells, 4 µg/mL
human CD70 (human) [8] = target: human CD70 (human) (UniProt P32970); test: IHC Leica BOND, ER1, FFPE MM.1S cells, 4 µg/mL
human CD70 (human) [9] = target: human CD70 (human) (UniProt P32970); test: manual IHC, FFPE MJ cells (CD70 positive), 10 µg/mL
human CD70 (human) [10] = target: human CD70 (human) (UniProt P32970); test: IHC Leica BOND, ER2, FFPE MM.1S cells, 8 µg/mL
human CD70 (human) [11] = target: human CD70 (human) (UniProt P32970); test: IHC Leica BOND, ER2, FFPE HH cells, 8 µg/mL
human CD70 (human) [12] = target: human CD70 (human) (UniProt P32970); test: IHC Leica BOND, ER2, FFPE ACHN cells, 8 µg/mL
human CD70 (human) [13] = target: human CD70 (human) (UniProt P32970); test: IHC Leica BOND, ER2, FFPE MJ cells, 4 µg/mL
human CD70 (human) [14] = target: human CD70 (human) (UniProt P32970); test: manual IHC, FFPE HuT78 cells (CD70 positive), 10 µg/mL
human CD70 (human) [15] = target: human CD70 (human) (UniProt P32970); test: IHC Leica BOND, ER2, FFPE HuT78 cells, 8 µg/mL
human CD70 (human) [16] = target: human CD70 (human) (UniProt P32970); test: IHC Leica BOND, ER2, FFPE MM.1S cells, 4 µg/mL
human CD70 (human) [17] = target: human CD70 (human) (UniProt P32970); test: IHC Leica BOND, ER1 and ER2, FFPE RCC tissues, 4 µg/mL
human CD70 (human) [18] = target: human CD70 (human) (UniProt P32970); test: IHC Leica BOND, ER1, FFPE MJ cells, 4 µg/mL
human CD70 (human) [19] = target: human CD70 (human) (UniProt P32970); test: IHC Leica BOND, ER2, FFPE MI cells (so in the source); likely MJ), 8 µg/mL
human CD70 (human) [20] = target: human CD70 (human) (UniProt P32970); test: manual IHC, FFPE Nomo-1 cells (CD70 positive), 10 µg/mL
human CD70 (human) [21] = target: human CD70 (human) (UniProt P32970); test: manual IHC, FFPE CD70 positive cell lines
human CD70 (human) [22] = target: human CD70 (human) (UniProt P32970); test: IHC Leica BOND, FFPE renal clear cell carcinoma tissue microarray, 8 µg/mL
human CD70 (human) [23] = target: human CD70 (human) (UniProt P32970); test: IHC Leica BOND, ER2, FFPE HuT78 cells, 4 µg/mL
human CD70 (human) [24] = target: human CD70 (human) (UniProt P32970); test: IHC Leica BOND, ER1, FFPE HH cells, 4 µg/mL
human CD70 (human) [25] = target: human CD70 (human) (UniProt P32970); test: IHC Leica BOND, ER2, FFPE HH cells, 4 µg/mL
human CD70 (human) [26] = target: human CD70 (human) (UniProt P32970); test: IHC Leica BOND, ER1, FFPE HuT78 cells, 4 µg/mL
human CD70 (human) [27] = target: human CD70 (human) (UniProt P32970); test: manual IHC, FFPE ACHN cells (CD70 positive), 10 µg/mL

Measured: binding

B1: 11E12E8 (antibody, IgG1, V domains shown)
VH: DVQLVESGGGLVQPGGSRKLSCAASGFTFSRFGMNWVRQAPEKGLEWVAYISSGSGDIYYADTVKGRFTISRDNPKNTLFLQMTSLRSEDTAMYYCAVTWFAYWGQGTLVTVSA
VL: QAVVTQEPALTTSPGETVTLTCRSSTGAVTTSNYANWVQEKPDHLFTGLIGGTNNRAPGVPARFSGSLIGDKAALTITGAQTEDEAIYFCVLWYSNHFIFGSGTKVTVL
binds: all assays above
